Results as given in PubChem BioAssay AID977628 (Broad Institute, 2014).
Screen size: about 1,900 compounds; fewer than 10 were called active. The shares of active, inactive and inconclusive entries below differ from those in the screen.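 The calls were made as follows: active = compound lowering the normal-ribosome reporter at least twice as much as the humanized-ribosome reporter, growth loss under a set limit; inconclusive = no clear call, values can overlap the other calls; inactive = the rest.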

experiment: growth of wild-type and h24-humanized E. coli strains – h24 mutant RFP vs wild-type GFP, cherry-pick, dose response (AID 977628); conditions: E. coli WT GFP strain growth, fluorescence, 24 h; at 50 µM (top of the series) unless noted

| Structure (SMILES) | activity change, negative = inhibition |
| --- | --- |
| COc1ccc(C#Cc2ccc([C@H]3[C@@H](CO)N4CCCCN(C(=O)Nc5cccc(F)c5)C[C@H]34)cc2)cc1 | inactive: -13.9 |
| O=C(O)c1cccc2c1-c1ccc([N+](=O)[O-])cc1C2=O | inactive: -7.97 |
| O=C(C[C@@H]1CC[C@@H]2[C@H](COC[C@H](O)CN2C(=O)Nc2ccc(Cl)cc2)O1)NCc1ccncn1 | inconclusive: -13.4 |
| COc1cccc(C(=O)N2C[C@@H]3[C@H](c4ccccc42)[C@H](CO)N3Cc2ccccc2Cl)c1 | inconclusive: -25.6 |
| CC(NC(=O)c1c(N)[nH]c(C(=O)c2ccccc2)c1-c1ccccc1Br)c1cccc2ccccc12 (configuration not stated) | inactive: -2.96 |
| Cc1ccc(S(=O)(=O)Nc2ccc3c(c2)C(=O)N([C@H](C)CO)C[C@@H](C)[C@H](CN(C)C(=O)c2ccccc2)OCCCC[C@@H](C)O3)cc1 | inconclusive: 0.208 |
| CCn1c(SCC(=O)Nc2ccc(OC)cc2)nc2nc3c(cc2c1=O)CCCC3 | inconclusive: -4.91 |
| O=[N+]([O-])c1ccc(-[n+]2nc(-c3ccccc3)nn2-c2ccccc2)cc1 | inconclusive: -47.1 |
| C[C@H](CO)N1C[C@H](C)[C@H](CN(C)C)OCCCC[C@H](C)Oc2ccc(NC(=O)Nc3cccc4ccccc34)cc2C1=O | inconclusive: -1.18 |
| CC(=O)Oc1ccc(N(C(C)=O)S(=O)(=O)c2ccc(Cl)cc2)c2ccccc12 | inconclusive: -8.13 |
| CC(C)NC(=O)N(C)C[C@H]1OCCCC[C@@H](C)Oc2ccc(NC(=O)Nc3cccc4ccccc34)cc2C(=O)N([C@@H](C)CO)C[C@H]1C | inconclusive: -2.62 |
| O=S(=O)(c1cccc(-c2nc3ccccc3s2)c1)N1CCCC1 | inconclusive: -9.35 |
| CN(Cc1ccccc1NS(=O)(=O)c1ccc(Cl)cc1)C1CCCCC1 | inconclusive: 3.73 |
| C[C@H]1CCCCO[C@H](CN(C)C(=O)CCCN(C)C)[C@@H](C)CN([C@@H](C)CO)C(=O)c2cc(NC(=O)Nc3cccc4ccccc34)ccc2O1 | inactive: 11 |
| COc1cc2cc(C(=O)Nc3ccc4c(c3)OCCO4)[nH]c2cc1OC | inactive: -11 |
| CCN(c1ccccc1)S(=O)(=O)c1ccc(OC)c(NC(=O)C2CC(=O)N(Cc3ccccc3)C2)c1 (configuration not stated) | inconclusive: -23.1 |
| C[C@@H](NC(=O)C[C@@H]1CC[C@@H]2[C@H](COC[C@H](O)CN2C(=O)Nc2cccc(F)c2)O1)c1ccccc1 | inconclusive: -1.46 |
| O=S(=O)(c1cnc(Cl)c(Cl)c1)N1CCCc2ccccc21 | inactive: -7.36 |
| O=C(Cn1c(C(=O)NCc2ccco2)cc2sccc21)c1ccccc1 | inconclusive: -26.3 |
| Cc1cc2nc(-c3ccc4c(c3)CCC4)ccn2n1 | inconclusive: -20.1 |
| COc1cccc(NC(=O)c2ccc(NCCCN3CCC(C)CC3)c([N+](=O)[O-])c2)c1 | inconclusive: -3.5 |

A run of entries from the list above, for reference:

| Structure (SMILES) | activity change, negative = inhibition |
| --- | --- |
| CC(NC(=O)c1c(N)[nH]c(C(=O)c2ccccc2)c1-c1ccccc1Br)c1cccc2ccccc12 (configuration not stated) | inactive: -2.96 |
| Cc1ccc(S(=O)(=O)Nc2ccc3c(c2)C(=O)N([C@H](C)CO)C[C@@H](C)[C@H](CN(C)C(=O)c2ccccc2)OCCCC[C@@H](C)O3)cc1 | inconclusive: 0.208 |
| CCn1c(SCC(=O)Nc2ccc(OC)cc2)nc2nc3c(cc2c1=O)CCCC3 | inconclusive: -4.91 |
| O=[N+]([O-])c1ccc(-[n+]2nc(-c3ccccc3)nn2-c2ccccc2)cc1 | inconclusive: -47.1 |
| C[C@H](CO)N1C[C@H](C)[C@H](CN(C)C)OCCCC[C@H](C)Oc2ccc(NC(=O)Nc3cccc4ccccc34)cc2C1=O | inconclusive: -1.18 |
| CC(=O)Oc1ccc(N(C(C)=O)S(=O)(=O)c2ccc(Cl)cc2)c2ccccc12 | inconclusive: -8.13 |
| CC(C)NC(=O)N(C)C[C@H]1OCCCC[C@@H](C)Oc2ccc(NC(=O)Nc3cccc4ccccc34)cc2C(=O)N([C@@H](C)CO)C[C@H]1C | inconclusive: -2.62 |
| O=S(=O)(c1cccc(-c2nc3ccccc3s2)c1)N1CCCC1 | inconclusive: -9.35 |
| CN(Cc1ccccc1NS(=O)(=O)c1ccc(Cl)cc1)C1CCCCC1 | inconclusive: 3.73 |
| C[C@H]1CCCCO[C@H](CN(C)C(=O)CCCN(C)C)[C@@H](C)CN([C@@H](C)CO)C(=O)c2cc(NC(=O)Nc3cccc4ccccc34)ccc2O1 | inactive: 11 |
| COc1cc2cc(C(=O)Nc3ccc4c(c3)OCCO4)[nH]c2cc1OC | inactive: -11 |
| CCN(c1ccccc1)S(=O)(=O)c1ccc(OC)c(NC(=O)C2CC(=O)N(Cc3ccccc3)C2)c1 (configuration not stated) | inconclusive: -23.1 |
| C[C@@H](NC(=O)C[C@@H]1CC[C@@H]2[C@H](COC[C@H](O)CN2C(=O)Nc2cccc(F)c2)O1)c1ccccc1 | inconclusive: -1.46 |
| O=S(=O)(c1cnc(Cl)c(Cl)c1)N1CCCc2ccccc21 | inactive: -7.36 |
| O=C(Cn1c(C(=O)NCc2ccco2)cc2sccc21)c1ccccc1 | inconclusive: -26.3 |
| Cc1cc2nc(-c3ccc4c(c3)CCC4)ccn2n1 | inconclusive: -20.1 |

Further compounds.

| Structure (SMILES) | activity change, negative = inhibition |
| --- | --- |
| O=[N+]([O-])c1ccccc1CN1CCN(S(=O)(=O)c2ccccc2)CC1 | inconclusive: -31.7 |
| COc1ccc(NC(=O)Nc2cccc3c2O[C@H](CN(C)S(=O)(=O)c2ccc(C)cc2)[C@H](C)CN([C@@H](C)CO)C3=O)cc1 | inconclusive: -9.37 |
| CC1(CCC(=O)N2CCCC(N3CCN(c4ccc(F)cc4)CC3)C2)CC1 (configuration not stated) | inconclusive: -0.078 |
| Cc1[nH]nc2c1C(c1ccc(F)cc1)N(Cc1ccccc1)C2=O (configuration not stated) | inconclusive: -19.2 |
| N#Cc1nc(COc2cccc(Cl)c2)oc1N1CCCC1 | inactive: -9.86 |
| Cn1c(CCN2CCOCC2)nc2cc(NC(=O)c3cccs3)ccc21 | inconclusive: 1.43 |
| CC(=O)c1ccc(OCC(=O)Nc2ccc3c(c2)CCC3)cc1 | inactive: -5.29 |
| COc1ccccc1-c1noc2ncnc(Nc3cccc(C)c3C)c12 | inactive: -15.2 |
| COc1ccc(C2CC(=O)CCN2S(=O)(=O)c2ccc(C)cc2)cc1 (configuration not stated) | inconclusive: -11.3 |
| Cc1cc(Br)cn2c(Cc3cccc(Cl)c3)c(-c3ccco3)nc12 | inactive: -3.11 |
| CCOc1ccc(CCNC(=O)CN2C(=O)CCSc3ccccc32)cc1 | inconclusive: -21.5 |
| Cc1ccc(OCCCC(=O)NC(C)c2ccccc2)c(C)c1 (configuration not stated) | inactive: -8.4 |
| NS(=O)(=O)c1cc(C(=O)OCC(=O)Nc2ccccc2[N+](=O)[O-])ccc1Cl | inactive: -10.7 |
| O=C(C1Cc2ccccc2CN1C(=O)c1ccccc1)N1CCN(c2ccccc2)CC1 (configuration not stated) | inactive: -10.3 |
| Cc1ccc(Nc2nc(C(=O)NCC3CCCO3)cs2)cc1 (configuration not stated) | inactive: -3.15 |
| CC(C)(C)c1ccc(S(=O)(=O)NCc2ccc(C(=O)NCc3ccccn3)cc2)cc1 | inactive: -16.8 |
| Cc1ccc(NC(=O)C[n+]2cc(-c3ccccc3)n3c2CCC3)c(C)c1 | inconclusive: -18.6 |
| Cc1cc(C)cc(NC(=O)c2cccc(NC(=O)C3C4CC5OC(=O)C3C5C4)c2)c1 (configuration not stated) | inconclusive: -23.7 |
| C[C@@H]1CCCCO[C@@H](CN(C)C)[C@@H](C)CN([C@H](C)CO)C(=O)c2cc(NC(=O)Nc3cccc4ccccc34)ccc2O1 | inconclusive: -8.78 |
| O=C(Nc1cccnc1)c1ccc([N+](=O)[O-])o1 | inconclusive: -15 |
| NC(=O)c1ccsc1NC(=O)COC(=O)CSc1ccc(Cl)cc1 | inconclusive: -20 |

| Structure (SMILES) | activity change, negative = inhibition |
| --- | --- |
| Cc1cccc(OCc2nnc(SCC(=O)Nc3ncc(C)s3)o2)c1 | inactive: -7.7 |
| CSc1cccc(NC(=O)CCc2ccccc2)c1 | inactive: -5.17 |
| C[C@]12C(=O)N(c3ccc(F)cc3)C(=O)N1[C@@H]1c3ccccc3OC[C@@H]1[C@H]2c1ccccc1 | inactive: -14.6 |
| O=C(O)c1cc(-c2cccs2)nn1-c1cccc(Cl)c1 | inconclusive: -17.6 |
| CCOC(=O)c1cc2nc(-c3ccccc3)cc(C)n2n1 | inconclusive: -13.2 |
| CC(C)OC(=O)c1sc2nc(-c3ccccc3)ccc2c1N | inconclusive: -2.62 |
| CC(=O)Nc1cccc(NC(=O)c2c(-c3c(Cl)cccc3Cl)noc2C)c1 | inactive: -1.98 |
| COc1ccccc1C1CCN(Cc2cccc([N+](=O)[O-])c2)CC1 | inconclusive: -11.4 |
| CCc1cccc(NC(=O)c2ccc3c(=O)n4c(nc3c2)CCCCC4)c1 | inactive: -5.34 |
| CSc1ccc(CN(C)C(=O)C(c2ccccc2)c2ccccc2)cc1 | inconclusive: -21.3 |
| CN1CCN(c2nc(Nc3ccc(O)cc3)nc3ccccc23)CC1 | inconclusive: -20.8 |
| COc1ccc(C(=O)Nc2nc3ccc(OC)cc3s2)cc1 | inconclusive: -22.3 |
| C=CCSc1cc(C)nc2c(-c3ccccc3)c(C)nn12 | inactive: -4.76 |
| CC1CCCC(NC(=O)COC(=O)[C@@H]2CC(O)CN2S(=O)(=O)c2ccc3c(c2)OCCO3)C1C (some centres not stated) | inactive: -10.7 |
| COc1ccc(NC(=O)CSc2n[nH]c(-c3ccncc3)n2)c([N+](=O)[O-])c1 | inactive: -4.84 |
| O=C(NCc1ccccc1)c1ccc(-c2ccccc2F)o1 | inconclusive: -23.8 |
| CCC[N+]1(CC#CC(O)(c2ccccc2)C2CCCCC2)CCCCC1 (configuration not stated) | inactive: -11.1 |
| Cc1nc(Nc2ccccc2)sc1C(=O)Nc1ccccc1 | inconclusive: -27.4 |
| C[n+]1ccccc1/C=C/c1cc(Br)ccc1O | inconclusive: -12.8 |
| Cc1noc(C)c1NC(=O)Nc1ccc2c(c1)C(=O)N([C@H](C)CO)C[C@@H](C)[C@H](CN(C)C(=O)Nc1ccc3c(c1)OCO3)OCCCC[C@@H](C)O2 | inconclusive: -1.53 |
| Cc1cc(C(=O)Nc2cccc3c2O[C@H](CN(C)S(=O)(=O)c2ccc(Cl)cc2)[C@H](C)CN([C@@H](C)CO)C3=O)n(C)n1 | inconclusive: -7.06 |

| Structure (SMILES) | activity change, negative = inhibition |
| --- | --- |
| Cc1cccc(OCCn2c(=O)oc3ccc(C)cc32)c1 | inactive: -1.28 |
| O=C(CSc1nc2ccccc2[nH]1)Nc1ccccc1F | inconclusive: -23.1 |
| O=C(NCc1ccco1)c1ccc2ccccc2n1 | inconclusive: -15.2 |
| CCc1c(N=O)c(-c2ccccc2)n(O)[n+]1[O-] | inactive: -8.37 |
| c1coc(CSc2ncnc3c2oc2ccccc23)c1 | inactive: -5.49 |
| O=C(Nc1c(S(=O)(=O)c2ccc(Cl)cc2)csc1Br)c1ccccc1Cl | inconclusive: -3.95 |
| O=[N+]([O-])c1cccc(COc2ccc(CN3CCOCC3)cc2)c1 | inactive: -8.77 |
| Cc1ccc(S(=O)(=O)N2CC[C@H]3[C@H](CO)Nc4ccc(Br)cc4[C@H]32)cc1 | inconclusive: -87.8 |
| COc1ccc(CC(=O)Oc2ccc(C)cc2C)cc1 | inactive: -5.95 |
| CN1CCN(C(=O)c2cc3sc4ccccc4c3s2)CC1 | inconclusive: -20.6 |
| CC(=O)OC(COc1cccc(C)c1)Cn1cnc2ccccc21 (configuration not stated) | inconclusive: -13 |
| COc1ccc(C2CC(=O)Oc3cc(C)cc(C)c32)cc1 (configuration not stated) | inactive: -5.41 |
| COC(=O)c1ccc(C(=O)Nc2ccc3nc(-c4ccncc4)[nH]c3c2)cc1 | inactive: -3.19 |
| O=C(CC(c1ccccc1)c1cc(Br)ccc1O)N1CCCC1 (configuration not stated) | inconclusive: -32 |
| O=C(Nc1ncccn1)c1ccc([N+](=O)[O-])o1 | inconclusive: 5.63 |
| Cc1ccc(S(=O)(=O)Nc2ccccc2CNc2cccc(C)n2)cc1 | inconclusive: -17.3 |
| C[C@@H]1CN([C@H](C)CO)C(=O)c2cccc(NC(=O)c3ccncc3)c2O[C@@H]1CN(C)S(=O)(=O)c1ccc(Cl)cc1 | inconclusive: -22.5 |
| CC(CNc1ccc(Cl)cc1)(CNc1ccc(Cl)cc1)[N+](=O)[O-] | inconclusive: -25.2 |
| Cc1ccc(-c2n[nH]c(S(C)(=O)=O)c2C#N)cc1 | inconclusive: -13.5 |
